Structures were worked out from names or drawings and are uncertain.
How the values were obtained:
[1] = target: HDAC2 (Homo sapiens, UniProt Q92769); assay: Recombinant HDAC µSPOT microarray binding assay; conditions: HDAC2 microarray dose-response curve fit, X = Asuha; for Bottom Value: bottom plateau; for Top Value: top plateau;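 on all read-outs here: Cellulose-bound peptide spots on slides incubated with six HDAC enzyme concentrations, binding intensity read, four-parameter variable-slope fit, EC50 is enzyme concentration giving half-maximal binding, in HEPES buffer pH 7.4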
[2] = target: HDAC8 (Homo sapiens, UniProt Q9BY41); assay: Recombinant HDAC µSPOT microarray binding assay;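 on Bottom: relative spot intensity from the six enzyme-concentration slides imaged together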;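 on Top: relative spot intensity from the six enzyme-concentration slides imaged together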;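 on all read-outs here: peptide µSPOT slides incubated with varying HDAC enzyme concentrations, imaged signal intensity fitted by four-parameter variable-slope regression, EC50 is enzyme concentration giving half-maximal binding, pH 7.4 HEPES buffer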; conditions: HDAC8 µSPOT microarray dose-response fit, X = Asuha, sheet Fig. 3 HDAC8; for Bottom: Bottom Value; for HillSlope: HillSlope Value; for Top: Top Value; for LogEC50 (M): logarithm of EC50 in M

By UniProt entry, the sequences of proteins in these tests, tags left out.
UniProt Q92769, whole entry: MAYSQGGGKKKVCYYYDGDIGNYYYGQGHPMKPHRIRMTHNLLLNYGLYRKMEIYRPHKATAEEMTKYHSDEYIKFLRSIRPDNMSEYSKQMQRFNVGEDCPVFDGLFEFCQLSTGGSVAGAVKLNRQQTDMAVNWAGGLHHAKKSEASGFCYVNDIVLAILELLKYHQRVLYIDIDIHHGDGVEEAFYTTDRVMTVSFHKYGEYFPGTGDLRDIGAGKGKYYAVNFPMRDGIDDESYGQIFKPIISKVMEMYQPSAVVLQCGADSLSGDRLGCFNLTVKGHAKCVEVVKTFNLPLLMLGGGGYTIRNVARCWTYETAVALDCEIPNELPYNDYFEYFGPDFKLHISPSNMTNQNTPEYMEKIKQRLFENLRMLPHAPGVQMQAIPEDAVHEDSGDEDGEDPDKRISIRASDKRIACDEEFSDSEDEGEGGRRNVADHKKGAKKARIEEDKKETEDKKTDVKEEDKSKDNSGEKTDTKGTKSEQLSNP
UniProt Q9BY41, whole entry: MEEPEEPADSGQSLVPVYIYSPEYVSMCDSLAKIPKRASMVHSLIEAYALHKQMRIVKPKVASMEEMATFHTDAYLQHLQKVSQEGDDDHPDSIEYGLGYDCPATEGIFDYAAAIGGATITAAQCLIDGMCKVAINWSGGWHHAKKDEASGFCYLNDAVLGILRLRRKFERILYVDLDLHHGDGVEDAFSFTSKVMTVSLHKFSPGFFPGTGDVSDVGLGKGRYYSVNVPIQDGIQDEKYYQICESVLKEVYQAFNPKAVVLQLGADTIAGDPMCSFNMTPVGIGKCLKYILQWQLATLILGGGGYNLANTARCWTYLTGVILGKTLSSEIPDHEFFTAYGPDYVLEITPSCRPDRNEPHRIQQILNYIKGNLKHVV

Row | Bottom Value ([1]; sheet Fig. 3 HDAC2) | Top Value ([1]; sheet Fig. 3 HDAC2) | HillSlope (Value) ([1]; sheet Fig. 3 HDAC2) | Bottom [2] | HillSlope [2] | Top [2] | LogEC50 (M) [2] | Bottom Value [1] | Top Value [1] | HillSlope (Value) [1] | SMILES
1 | 0.25 | 1 | 2.61 | 0.2 | 2.61 | 0.97 | -8.37 M | – | – | – | CC(C)[C@H](NC(=O)CNC(=O)CNC(=O)[C@@H](NC(=O)[C@H](C)NC(=O)[C@@H]1CCCN1C(=O)[C@H](C)NC(=O)[C@H](CO)NC(=O)[C@H](CCCCN)NC(=O)[C@H](CCCNC(=N)N)NC(=O)[C@H](C)NC(=O)[C@H](C)NC(=O)[C@H](CCCCCC(=O)NO)NC(=O)[C@@H](N)[C@@H](C)O)[C@@H](C)O)C(=O)N[C@@H](CCCCN)C(=O)N[C@@H](CCCCN)C(=O)O
2 | 0.1 | 1.07 | – | 0.1 | 1.36 | 0.83 | -7.94 M | – | – | – | CC[C@H](C)[C@H](NC(=O)[C@H](CC(C)C)NC(=O)[C@H](CC(C)C)NC(=O)[C@H](CCC(=O)O)NC(=O)[C@@H](NC(=O)[C@H](CO)NC(=O)[C@H](CCCCCC(=O)NO)NC(=O)[C@H](CCC(N)=O)NC(=O)[C@H](Cc1ccc(O)cc1)NC(=O)[C@H](CCCNC(=N)N)NC(=O)[C@H](CCCNC(=N)N)NC(=O)[C@@H](NC(=O)[C@H](CCC(=O)O)NC(=O)[C@@H](N)CCCNC(=N)N)[C@@H](C)CC)[C@@H](C)O)C(=O)N[C@@H](CCCNC(=N)N)C(=O)N[C@@H](CCCCN)C(=O)O
3 | – | – | – | – | – | – | – | 0.24 | 1 | 2.35 | CC(C)C[C@H](NC(=O)[C@@H](NC(=O)[C@H](CCCCCC(=O)NO)NC(=O)[C@H](CCCNC(=N)N)NC(=O)[C@H](Cc1cnc[nH]1)NC(=O)[C@H](CCCNC(=N)N)NC(=O)[C@H](CCCCN)NC(=O)[C@H](C)NC(=O)CNC(=O)CNC(=O)[C@H](CCCCN)NC(=O)CNC(=O)[C@H](CC(C)C)NC(=O)CNC(=O)[C@H](CCCCN)NC(=O)CN)C(C)C)C(=O)O
